These are yes or no findings as the source states them, for the method shown. Binding seen in cells or lysates may run through a third protein. A result given as binding can be weak or reduced; the word gives no strength.

In the assay the target is Cuscuta Receptor 1 (CuRe1), myc-tagged (tomato (Solanum lycopersicum)). Put plainly: cross-linking; in planta affinity cross-linking: N. benthamiana leaves expressing 35S::CuRe1:myc infiltrated with 10 nM bio-Crip29 in ddH2O with or without 10 uM unlabeled competitor; after 5 min 2 mM EGS in 25 mM HEPES pH 7.5; harvested 20 min later; myc-trap immunoprecipitation; biotin detected with streptavidin-AP; only the binder purified.

B1: Crip21 (cysteine-rich peptide 21), minimal peptide epitope of CrGRP (peptide)
peptide: NCGNSGCCGGAYSNGQCKRCC
With B1, the binding result is on record as “binds”.

B2: bio-Crip29 (N-terminally biotinylated 29-aa Crip peptide) (peptide)
peptide: GKGKNCGNSGCCGGAYSNGQCKRCCAYKG
modifications: biotin on the N-terminus
On to B2, for which the binding entry is given as “binds”.
